A word on the EC50: it is the concentration giving half of the maximal effect.

This passage reports EC50 results from PubChem BioAssay AID434947 (Broad Institute, 2010).

Structures are written as SMILES. Among all 2,200 compounds or so, about 15 (0.7%) were called active.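 Rule for the calls: active = fitted half-maximal concentration for loss of luminescence signal no more than a set limit of log units above the top tested concentration; inconclusive = flat fit with 30 to 70% signal loss, or invalid fit; inactive = half-maximal concentration above that set limit.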 The list shows a part of the results.

The nature of the experiment: inhibitors of ADP-Glo detection reagents, dose response, artefact control for GSK3beta inhibitor project, biochemical, luminescence, cell-free, homogeneous (AID 434947).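 Note: kinase-free counter screen of ADP-Glo detection reagents for GSK3beta hits.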 The conditions noted are these: 5 uM ADP. On the technique in general: ADP-Glo first removes unused ATP, then detects ADP through luciferase.
Take `COc1ccc(C2=NOC(C(=O)Nc3cccnc3)C2)cc1` (centres undefined): the EC50 was inactive: > 30 µM.

As for `O=C(NCC(c1ccco1)N1CCc2ccccc21)c1cccc([N+](=O)[O-])c1` (centres undefined), the EC50 was inactive: > 30 µM.

In the case of `CCCN(CCC)CCCNc1ccc2nnc(-c3ccc(F)cc3)n2n1`, the EC50 is inactive: > 30 µM.

Regarding `COc1ccc(CCNC(=O)CN2CCOc3ccccc32)cc1OC`, the EC50 was inactive: > 30 µM.

Turning to `CCCCOC(=O)C1=C(C)Nc2ncnn2C1c1cccc(OC)c1OC` (centres undefined), the EC50 was inactive: > 30 µM.

For `O=C(O)c1cccc(Nc2ccnc(Nc3cccc(C(=O)O)c3)n2)c1`, the EC50 was inactive: > 30 µM.

`COc1ccc(-c2cc(=O)oc3c(C)c(O)ccc23)cc1`: the EC50 was inactive: > 30 µM.

Turning to `Cc1c(C(=O)O)sc2ncnc(N3CCCCC3C)c12` (centres undefined), the EC50 is inactive: > 30 µM.

`O=c1cc(-c2ccccc2Cl)oc2ccc([N+](=O)[O-])c(O)c12`: the EC50 was inactive: > 30 µM.

For `C=CCNC(=O)/C(=C\c1cccc([N+](=O)[O-])c1)NC(=O)c1ccccc1`, the EC50 was inactive: > 30 µM.

Regarding `CC(C)N(Cc1nnc(-c2ccc(Cl)cc2)o1)C(=O)C1=COCCO1`, the EC50 is inactive: > 30 µM.

For the compound `COc1ccc(CNC(=O)CN(Cc2ccc(OC)cc2)C(=O)CCC(=O)Nc2nccs2)cc1`, the EC50 is inactive: > 30 µM.

Regarding `COc1cccc(C(=O)CC(C#N)c2ccc(F)cc2)c1` (centres undefined), the EC50 was inactive: > 30 µM.

Take `COc1cccc2c1cc1c(=O)n(CC(=O)N3CCC(C)CC3)nc(C)n12`: the EC50 is inactive: > 30 µM.

With `CCOc1ccccc1NC(=O)c1nnn(-c2ccc3c(c2)OCCO3)c1N`, the EC50 was inactive: > 30 µM.

Turning to `CC1(C)CC(=O)C2=C(C1)Nc1ncnn1C2c1cccs1` (centres undefined), the EC50 was inactive: > 30 µM.

On to `COc1ccccc1/C=C1\C(=O)Nc2ccccc21`, for which the EC50 is inactive: > 30 µM.

As to `CCn1c(SCC(=O)NNC(=O)c2ccc(C)cc2)nnc1C1CC1`, the EC50 is inactive: > 30 µM.

For `Cc1ccc(-n2c(C)c([N+](=O)[O-])c3ccc(O)cc32)cc1`, the EC50 is inactive: > 30 µM.

For the compound `CCN1CCN(C(=O)Cn2nc(C)n3c(cc4c(OC)cccc43)c2=O)CC1`, the EC50 was inactive: > 30 µM.

For the compound `CC(OC(=O)c1nsc(Cl)c1Cl)C(=O)NCc1ccco1` (centres undefined), the EC50 is inactive: > 30 µM.

As to `Cc1ccc(S(=O)(=O)N/N=C\c2cn(-c3ccccc3)nc2-c2ccccc2)cc1`, the EC50 is inactive: > 30 µM.

On to `CN1CCN(c2nc(-c3ccccc3)nc(-c3ccccc3)c2C#N)CC1`, for which the EC50 is inactive: > 30 µM.

For `Cc1nnc2n(-c3ccccc3)c(=O)c3c4c(sc3n12)COC(C)(C)C4`, the EC50 was inactive: > 30 µM.

On to `Oc1ccc(/C=N/Nc2ncnc3nc[nH]c23)cc1`, for which the EC50 was inactive: > 30 µM.

Take `CC1CCCCN1c1cc(C#N)c(C#N)cc1[N+](=O)[O-]` (centres undefined): the EC50 was inactive: > 30 µM.

With `O=C(O)c1ccc(/C=N/Nc2ccc(C(F)(F)F)cn2)cc1`, the EC50 is inactive: > 30 µM.

`O=C(CSc1nnc(-c2ccncc2)n1-c1ccc(F)cc1)NC(=O)NCc1ccco1`: the EC50 is inactive: > 30 µM.

On to `Cc1[nH]n(-c2ccccc2)c(=O)c1/C=N/NC(=O)COc1ccccc1[N+](=O)[O-]`, for which the EC50 was inactive: > 30 µM.

For `CCN(CC)S(=O)(=O)c1cccc(N2CC(O)=C(c3ccccc3)C2=N)c1`, the EC50 is inactive: > 30 µM.

Consider `CCN(CC)Cc1c(O)ccc2c1O/C(=C\C=C\c1ccccc1)C2=O`, for which the EC50 was inactive: > 30 µM.

On to `Nc1nonc1-n1nnc(C(=O)N/N=C/c2cccc(Cl)c2)c1CN1CCCC1`, for which the EC50 was inactive: > 30 µM.

For the compound `Nc1nc(Nc2ccccc2F)sc1C(=O)c1ccccc1`, the EC50 is inactive: > 30 µM.

For `CCCCOC(=O)c1ccc(O)cc1`, the EC50 was inactive: > 30 µM.

Consider `Cc1ccc(Cc2cnc(NC(=O)C3CCCO3)s2)cc1` (centres undefined), for which the EC50 is inactive: > 30 µM.

With `CCN1CCN(CC2COc3ccccc3O2)CC1` (centres undefined), the EC50 was inactive: > 30 µM.

Turning to `CCOc1ccc(/C=N/Nc2ccccn2)cc1OC`, the EC50 was inactive: > 30 µM.

On to `O=C(c1ccc(Br)cc1)c1coc2ccc(O)cc12`, for which the EC50 is inactive: > 30 µM.

Regarding `CN(Cc1c(C(=O)N/N=C/c2ccc(O)cc2)nnn1-c1nonc1N)C1CCCCC1`, the EC50 was inactive: > 30 µM.

Consider `CCSc1nc2sc3c(c2c(=O)n1-c1ccccc1)CCN(C)C3`, for which the EC50 was inactive: > 30 µM.

`Nc1nc(NCCOCCO)nc(NCc2ccccc2)c1[N+](=O)[O-]`: the EC50 is inactive: > 30 µM.

For `COc1ccc(NC(=S)Nc2cccc(Cl)c2Cl)cc1OC`, the EC50 was inactive: > 30 µM.

Turning to `CC(C)(C)c1ccc(/C=N/n2cnnc2)cc1`, the EC50 is inactive: > 30 µM.

Turning to `CCN1CCN(c2cc(C)c3cc(NC(=O)CCC(=O)Nc4ccc(OC)cc4OC)ccc3n2)CC1`, the EC50 is inactive: > 30 µM.

For the compound `COc1ccc(OC)c(Nc2nc(NCCCN(C)C)nc(N)c2[N+](=O)[O-])c1`, the EC50 is inactive: > 30 µM.

`CS(=O)(=O)c1ccccc1-c1nnc(NC(=O)c2ccc3ncsc3c2)o1`: the EC50 was inactive: > 30 µM.

`O=C(OCCCOC(=O)c1ccc(O)cc1)c1ccc(O)cc1`: the EC50 was inactive: > 30 µM.

With `Nc1nc(NCc2ccco2)nc(Nc2ccccc2)c1[N+](=O)[O-]`, the EC50 is inactive: > 30 µM.

As for `NC(=O)C1CCN(c2nc3c(S(=O)(=O)c4ccccc4)nnn3c3ccccc23)CC1`, the EC50 was inactive: > 30 µM.

`Nc1nonc1-n1nnc(C(=O)N/N=C/c2ccccc2F)c1CN1CCc2ccccc21`: the EC50 is inactive: > 30 µM.

As for `Cc1nnc2n(-c3ccccc3)c(=O)c3c4c(sc3n12)CCCC4`, the EC50 was inactive: > 30 µM.

As for `O=C(Nc1nccs1)C1CCCN1S(=O)(=O)c1cccc2cccnc12` (centres undefined), the EC50 is inactive: > 30 µM.

For the compound `O=C(CCSc1nnc(-c2ccncc2)o1)Nc1ccc(F)cc1`, the EC50 was inactive: > 30 µM.

With `O=C(O)c1cc(-c2ccc(/C=N/NC(=S)Nc3ccccc3)o2)ccc1Cl`, the EC50 is inactive: > 30 µM.

On to `Cc1cccc2cc3c(NC(=O)C(C)(C)C)nn(CC(C)C)c3nc12`, for which the EC50 is inactive: > 30 µM.

As to `c1ccc(CNc2nc(-c3cccnc3)nc3ccccc23)cc1`, the EC50 was inactive: > 30 µM.

For `Cc1ccc(-n2nc3c(N4CCC(C(=O)N5CCCCCC5)CC4)nnc(C)c3c2C)cc1`, the EC50 was inactive: > 30 µM.

With `O=[N+]([O-])c1ccccc1Oc1ccccc1Cl`, the EC50 is inactive: > 30 µM.

Take `COc1ccccc1-c1c(C(F)(F)F)oc2c(CN(C)C)c(O)ccc2c1=O`: the EC50 was inactive: > 30 µM.
